{"source": "paper PMC6459490", "binders": {"B1": {"name": "Dhh1[1–425]–3HA (domain or fragment, UniProt P39517 1-425)", "chain": "MGSINNNFNTNNNSNTDLDRDWKTALNIPKKDTRPQTDDVLNTKGNTFEDFYLKRELLMGIFEAGFEKPSPIQEEAIPVAITGRDILARAKNGTGKTAAFVIPTLEKVKPKLNKIQALIMVPTRELALQTSQVVRTLGKHCGISCMVTTGGTNLRDDILRLNETVHILVGTPGRVLDLASRKVADLSDCSLFIMDEADKMLSRDFKTIIEQILSFLPPTHQSLLFSATFPLTVKEFMVKHLHKPYEINLMEELTLKGITQYYAFVEERQKLHCLNTLFSKLQINQAIIFCNSTNRVELLAKKITDLGYSCYYSHARMKQQERNKVFHEFRQGKVRTLVCSDLLTRGIDIQAVNVVINFDFPKTAETYLHRIGRSGRFGHLGLAINLINWNDRFNLYKIEQELGTEIAAIPATIDKSLYVAENDET"}}, "biological_target": "T1, Eap1–PA (eukaryotic translation initiation factor 4E-associated protein 1, protein A tagged) (S. cerevisiae) (UniProt P36041)", "T1 sequence": "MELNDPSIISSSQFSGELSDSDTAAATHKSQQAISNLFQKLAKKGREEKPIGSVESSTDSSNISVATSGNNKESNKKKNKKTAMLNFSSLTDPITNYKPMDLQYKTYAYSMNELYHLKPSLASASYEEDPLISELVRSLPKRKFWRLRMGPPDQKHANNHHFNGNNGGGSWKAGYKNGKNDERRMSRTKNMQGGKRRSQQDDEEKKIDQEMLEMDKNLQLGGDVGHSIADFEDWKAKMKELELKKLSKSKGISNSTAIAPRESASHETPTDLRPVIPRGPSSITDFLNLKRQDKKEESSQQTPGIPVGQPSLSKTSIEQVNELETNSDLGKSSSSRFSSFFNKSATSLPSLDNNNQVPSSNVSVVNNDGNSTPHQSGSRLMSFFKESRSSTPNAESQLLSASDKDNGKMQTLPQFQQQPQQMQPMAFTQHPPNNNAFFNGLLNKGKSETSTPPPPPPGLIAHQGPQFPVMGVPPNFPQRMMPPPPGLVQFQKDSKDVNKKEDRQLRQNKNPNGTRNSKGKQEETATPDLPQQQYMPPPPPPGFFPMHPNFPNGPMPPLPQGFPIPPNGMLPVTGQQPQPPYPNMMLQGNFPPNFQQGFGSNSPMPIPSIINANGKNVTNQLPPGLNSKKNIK", "experiment": "co-IP; PA-tagged Eap1 precipitated with IgG Sepharose beads from lysates of yeast cells starved in SD-N for 2 h; 4 °C, 2 to 10 h, lysis buffer with RNase inhibitor; Dhh1–3HA detected by western blot (anti-HA); RNase treatment (0.1 μg/μl, 8 to 10 h) significantly decreased the amount of Dhh1–3HA", "note": "Results are given in words; binding and its absence hold for the method and conditions named. Binding seen in cells or lysates may run through a third protein. Where a sequence is shown, tags or fusion partners need not be part of it."}
{"binder": "B1", "values": [{"measurement": "binding", "value": "no binding"}]}
